# Measurements reported in PubChem BioAssay AID1159584 (Peter MacCallum Cancer Centre, 2016)
# Screen: 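Knock-downs that harm CDH1-null cells more than parental MCF10A cells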 (primary screen)
# Cell system: human MCF10A breast epithelial cells, parental and CDH1-null
# Knock-down reagent: siRNA against human genes
# Measurement: 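Cell viability by CellTiter-Glo ATP luminescence, each line scaled to the mean of mock wells across plates, then CDH1-null over parental ratio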
# Scale: CDH1-null / parental viability ratio: higher = CDH1-null cells survive relatively better than parental; CDH1-null viability vs mock: higher = more viable CDH1-null cells; parental viability vs mock: higher = more viable parental cells
# Shown is one part, drawn at random, of about 18,000 reagents. Not given: the amount of reagent, the time to read-out.
gene,CDH1-null / parental viability ratio,CDH1-null viability vs mock (fraction of mock),parental viability vs mock (fraction of mock)
HCRT,1.11,0.88,0.79
DNAJC5B,0.88,0.79,0.9
MROH2B,0.93,0.89,0.96
NFXL1,1.06,0.94,0.89
DYNLT2B,1.02,0.94,0.92
POU4F3,1.07,1.23,1.15
OXLD1,0.74,0.54,0.73
ZDHHC16,1.05,0.46,0.44
CES5A,0.92,1,1.09
ZNF560,1.16,0.96,0.83
SIGLEC12,0.49,0.32,0.65
EPHA10,1.19,1.06,0.89
RFXANK,1.04,0.81,0.78
DEF6,0.83,0.74,0.89
JUNB,1.12,0.56,0.5
CALML5,1.27,1,0.79
TMEM129,0.86,0.55,0.64
LMAN2L,0.98,1,1.02
WDR64,1.07,0.88,0.82
DHTKD1,1.03,0.72,0.7
ZNF619,0.82,0.62,0.76
RAB34,0.94,0.49,0.52
FAM120AOS,0.83,0.8,0.96
PLSCR5,1.05,1.01,0.96
GPR83,0.9,0.84,0.93
SPACA5B,0.95,0.87,0.92

Next part (2 carried over from the part before).
gene,CDH1-null / parental viability ratio,CDH1-null viability vs mock (fraction of mock),parental viability vs mock (fraction of mock)
GPR83,0.9,0.84,0.93
SPACA5B,0.95,0.87,0.92
RDH11,1.03,0.76,0.74
NSDHL,0.56,0.32,0.57
SMAP2,0.85,0.7,0.82
CD52,1.22,0.5,0.41
ZNF461,0.82,0.54,0.66
TIA1,0.62,0.52,0.84
MBD1,0.92,0.83,0.9
IQCF1,1.05,0.78,0.74
UQCR11,1.04,0.99,0.95
IPO4,1.05,0.9,0.86
ZNF787,1.07,0.75,0.7
DOCK6,0.9,0.82,0.91
HAAO,0.73,0.48,0.66
KRT6C,0.87,0.67,0.77
RNF10,0.81,0.57,0.7
C8orf82,1.04,0.88,0.85
ZNF500,1.05,0.97,0.92
NRSN2,1.25,0.9,0.72
MATN2,0.71,0.29,0.41
BCL11A,0.95,0.76,0.8
